According to PubChem BioAssay AID2551 (National Center for Advancing Translational Sciences (NCATS), 2010):
Hit rate of the full screen: of about 310,000 compounds, about 17,000 (5.5%) were called active. Only results without a clear call are listed here; the source files them as inconclusive. Calls follow the shape of the dose curve; as a rule, active = well fitted inhibition curve with a large enough effect; inconclusive = small, poorly fitted or top-dose-only effect, or effect the other way; inactive = no such curve, though single readings can be large or run the other way.

Amino acid sequences for entries named in this document (tags omitted).
UniProt P51450, whole entry: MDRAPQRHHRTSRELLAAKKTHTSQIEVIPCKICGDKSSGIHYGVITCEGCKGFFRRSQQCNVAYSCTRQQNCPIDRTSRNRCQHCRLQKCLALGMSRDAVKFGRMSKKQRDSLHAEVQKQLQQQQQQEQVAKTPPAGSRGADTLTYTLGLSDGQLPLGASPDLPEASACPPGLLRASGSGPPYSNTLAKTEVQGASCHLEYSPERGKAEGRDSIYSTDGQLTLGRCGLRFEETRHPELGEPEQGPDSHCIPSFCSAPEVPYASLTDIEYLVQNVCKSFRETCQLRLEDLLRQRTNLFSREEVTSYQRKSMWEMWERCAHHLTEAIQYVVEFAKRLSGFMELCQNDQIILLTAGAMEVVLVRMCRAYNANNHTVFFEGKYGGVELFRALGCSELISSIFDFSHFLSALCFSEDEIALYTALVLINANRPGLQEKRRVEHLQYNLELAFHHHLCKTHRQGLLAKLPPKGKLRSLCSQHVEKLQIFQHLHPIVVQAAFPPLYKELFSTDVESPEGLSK

Each compound was assayed against Nuclear receptor ROR-gamma (Mus musculus) (UniProt P51450) (assay: qHTS for inhibitors of ROR gamma transcriptional activity). Conditions: Drosophila S2 Gal4-RORgamma UAS-luciferase reporter, 20 h.
Also: nearly all actives have a fitted effect of over 60% in size.
Potency is read from the fitted curve at half-maximal effect.

Compound	Potency
O=[N+]([O-])c1cc([N+](=O)[O-])c(OC2CCCCC2O)c([N+](=O)[O-])c1 (stereo not drawn)	inconclusive: 6.31 µM
Cc1ccc(OCC(C)C)c(CN(CCCl)CCCl)c1	inconclusive: 14.1 µM
CCCN1CCC(Nc2cc(OC)cc(OC)c2)CC1	inconclusive: 25.1 µM
